# Values joined by “and” are separate entries in the source; they are usually repeats but may differ in a detail not shown here. Identical values can stand only once. Counter-ions that a name gives are not always drawn. ± gives the standard deviation of the averaged measurements. Some of the results follow. Baselines shift from plate to plate; read single values as rough.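 Culture-activated primary human stellate myofibroblasts, where regained lipid droplets signal inactivation. Value: share of Hoechst-counted cells above a per-plate Bodipy cutoff, in duplicate wells, with DMSO negative and nortriptyline positive controls on each plate. Hits: a control-normalized score above the plate's top-tenth-percentile nortriptyline wells, or one of a plate's three best wells. Final well concentrations are not given.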
# Tested on: primary human hepatic stellate cells (donor 1)
# Assay: percent Bodipy-positive cells; higher = more lipid droplet accumulation
# Details: 48 h
# [1] = library stock concentration: 10 mM
# [2] = library stock concentration: 3.33 mM
# [3] = library stock concentration: 80 uM
# [4] = library stock concentration: 400 uM
# [5] = library stock concentration: 2 mM
# [6] = library stock concentration: 1 mM
smiles,measurement,setting,value
N[C@@H](Cc1ccc(O)c(I)c1)C(=O)O [3-Iodo-L-tyrosine],percent Bodipy-positive cells,[1],31.4 ± 8%
O=C(O)[C@H]1O[C@@H](Oc2cc3oc(-c4ccccc4)cc(=O)c3c(O)c2O)[C@H](O)[C@@H](O)[C@@H]1O [Baicalin],percent Bodipy-positive cells,[2],16.1 ± 5.8%
same,percent Bodipy-positive cells,[1],13.3 ± 7.9%
Nc1ccc(S(=O)(=O)Nc2ccccn2)cc1 [Sulfapyridine],percent Bodipy-positive cells,,9.66 ± 0.36%
same,percent Bodipy-positive cells,library stock concentration: 8 mM,17.09 ± 0.087%
same,percent Bodipy-positive cells,[1],36.8 ± 16%
CCN1CCC(n2cc(CNc3cc(Cl)c4ncc(C#N)c(Nc5ccc(F)c(Cl)c5)c4c3)nn2)CC1,percent Bodipy-positive cells,[3],19.3 ± 9.2%
same,percent Bodipy-positive cells,[4],17.9 ± 6.1%
same,percent Bodipy-positive cells,[5],27 ± 26%
CO[C@H]1C[C@H](O[C@H]2[C@H](C)[C@@H](O[C@@H]3O[C@H](C)C[C@H](N(C)C)[C@H]3O)[C@@H](C)C[C@@]3(CO3)C(=O)[C@H](C)[C@@H](O)[C@@H](C)[C@@H](C)OC(=O)[C@@H]2C)O[C@@H](C)[C@@H]1O [Oleandomycin phosphate],percent Bodipy-positive cells,,28.2 ± 8.7%
same,percent Bodipy-positive cells,[1],22.8 ± 3%
Nc1ccc(C(=O)Nc2cccc(-c3nc(N4CCOCC4)c4oc5ncccc5c4n3)c2)cn1,percent Bodipy-positive cells,[3],22 ± 12%
same,percent Bodipy-positive cells,[4],18.5% and 33.3%
same,percent Bodipy-positive cells,[5],31.4 ± 1.3%
same,percent Bodipy-positive cells,[2],69.4 ± 4.4%
CN(C)CCCN1c2ccccc2Sc2ccc(Cl)cc21 [Chlorpromazine],percent Bodipy-positive cells,[1],59.7 ± 3.3%
CN(C)CCCN1c2ccccc2Sc2ccc(Cl)cc21 [Chlorpromazine HCl],percent Bodipy-positive cells,[2],66.7 ± 15%
same,percent Bodipy-positive cells,library stock concentration: 6.3 mM,49.9 ± 5.1%
CN(C)CCCN1c2ccccc2Sc2ccc(Cl)cc21 [Chlorpromazine hydrochloride],percent Bodipy-positive cells,,77.8 ± 11%
same,percent Bodipy-positive cells,[1],97.5 ± 2.2%
CN(C)CCCN1c2ccccc2Sc2ccc(Cl)cc21,percent Bodipy-positive cells,[1],97.16 ± 0.7%
CCCCCCCCCCCCCCCCOC[C@H](COP(=O)([O-])OCC[N+](C)(C)C)OC(=O)NC [Methylcarbamyl PAF C-16],percent Bodipy-positive cells,[6],13.5 ± 1.5%
COc1cc2c3cc1Oc1c(OC)c(OC)cc4c1[C@@H](Cc1ccc(OC(=O)c5ccc([N+](=O)[O-])cc5)c(c1)Oc1ccc(cc1)C[C@@H]3N(C)CC2)N(C)CC4 [E6 berbamine],percent Bodipy-positive cells,library stock concentration: 6.6 mM,97.53 ± 0.92%
CCc1cc2c(cc1N1CCC(N3CCOCC3)CC1)C(C)(C)c1[nH]c3cc(C#N)ccc3c1C2=O,percent Bodipy-positive cells,[1],75.4 ± 5.3%
O=c1ccc2ccccc2o1 [Coumarin],percent Bodipy-positive cells,[2],15.4 ± 5.5%
same,percent Bodipy-positive cells,[1],35.6% and 27.6%
COc1cc([C@@H]2c3cc4c(cc3[C@@H](O[C@@H]3O[C@@H]5CO[C@@H](c6cccs6)O[C@H]5[C@H](O)[C@H]3O)[C@H]3COC(=O)[C@H]23)OCO4)cc(OC)c1O [Teniposide],percent Bodipy-positive cells,library stock concentration: 3 mM,23.8 ± 8%
same,percent Bodipy-positive cells,[2],35.7 ± 1.8%
same,percent Bodipy-positive cells,[1],75.3% and 65.1%
O=C(O)c1c(Sc2ccccc2)c2cc(Cl)ccc2n1Cc1ccc(Cl)cc1,percent Bodipy-positive cells,[1],6.73 ± 1.1%
CCOc1ccccc1OC(c1ccccc1)C1CNCCO1 (stereo not drawn) [Reboxetine mesylate],percent Bodipy-positive cells,[2],53 ± 11%
O=c1[nH]cnc2c1ncn2[C@@H]1O[C@H](CO)[C@@H](O)[C@H]1O,percent Bodipy-positive cells,[1],29.7 ± 0.7%
O=c1[nH]cnc2c1ncn2[C@@H]1O[C@H](CO)[C@@H](O)[C@H]1O [Inosine],percent Bodipy-positive cells,[2],9.43 ± 3.2%
same,percent Bodipy-positive cells,[1],17.8 ± 1%
CCCCOc1cc(CC2CNC(=O)N2)ccc1OC (stereo not drawn),percent Bodipy-positive cells,library stock concentration: 18 mM,16.3 ± 2.1%
"OC[C@H]1O[C@@H](n2cnc3c(N[C@H]4CCC[C@@H]4O)ncnc32)[C@@H](O)C1O (stereo partly drawn) [Adenosine, N-(2-hydroxycyclopentyl)-, (1S-trans)- [CAS]]",percent Bodipy-positive cells,[1],8.32 ± 4.8%
O=C1NC(=O)/C(=C/c2ccc3c(c2)OC(F)(F)O3)S1,percent Bodipy-positive cells,[6],10.25 ± 0.067%
same,percent Bodipy-positive cells,[2],7.28 ± 2%
"Cc1n[nH]c(=O)[nH]c1=O [Azathymine, 6]",percent Bodipy-positive cells,,29.2 ± 4.6%
CC(C)Cn1c(=O)n(C)c(=O)c2[nH]cnc21 [3-Isobutyl-1-methylxanthine],percent Bodipy-positive cells,[1],38.6 ± 9.7%
CCOc1ccc2nc3cc(N)ccc3c(N)c2c1 [Ethacridine lactate monohydrate],percent Bodipy-positive cells,[2],28.4 ± 5%
same,percent Bodipy-positive cells,[1],94 ± 3.8%
CCOc1ccc2nc3cc(N)ccc3c(N)c2c1,percent Bodipy-positive cells,[1],98.6 ± 1.1%
CCN(CC)CCNc1ccc(CO)c2sc3ccccc3c(=O)c12 [Hycanthone],percent Bodipy-positive cells,,69.4 ± 16%
same,percent Bodipy-positive cells,[1],73 ± 4.7%
CC#CCC(C)C(=O)/C=C/[C@@H]1[C@H]2C/C(=C/CCCC(=O)O)C[C@H]2C[C@H]1O (stereo partly drawn) [15-keto Iloprost],percent Bodipy-positive cells,[6],9.77 ± 0.99%
CN(Cc1cnc2nc(N)nc(N)c2n1)c1ccc(C(=O)N[C@@H](CCC(=O)O)C(=O)O)cc1 [Methotrexate],percent Bodipy-positive cells,,22.8 ± 2.5%
same,percent Bodipy-positive cells,[2],8.51 ± 3.4%
same,percent Bodipy-positive cells,[1],16.8% and 7.36%
same,percent Bodipy-positive cells,library stock concentration: 11 mM,21.6 ± 6%
"CN(Cc1cnc2nc(N)nc(N)c2n1)c1ccc(C(=O)N[C@@H](CCC(=O)O)C(=O)O)cc1 (racemic) [Amethopterin (R,S)]",percent Bodipy-positive cells,,38.9 ± 13%
CN(Cc1cnc2nc(N)nc(N)c2n1)c1ccc(C(=O)N[C@@H](CCC(=O)O)C(=O)O)cc1,percent Bodipy-positive cells,[1],8.57 ± 2.5%
CN(Cc1cnc2nc(N)nc(N)c2n1)c1ccc(C(=O)N[C@@H](CCC(=O)O)C(=O)O)cc1 [Methotrexate hydrate],percent Bodipy-positive cells,[1],50.6 ± 19%
O=C(COc1ccc(Cl)cc1)N1CCN(Cc2ccc3c(c2)OCO3)CC1 [Fipexide hydrochloride],percent Bodipy-positive cells,,25.3 ± 5%
same,percent Bodipy-positive cells,[1],43.8 ± 3.6%
CNC(C)CCC=C(C)C (stereo not drawn) [Isometheptene mucate],percent Bodipy-positive cells,,9.86 ± 1.8%
Nc1cc(F)ccc1NC(=O)/C=C/c1cnn(C/C=C/c2ccccc2)c1,percent Bodipy-positive cells,[2],38.1 ± 2.9%
same,percent Bodipy-positive cells,[1],55 ± 18%
Nc1nc(NC2CC2)c2ncn([C@H]3C=C[C@@H](CO)C3)c2n1,percent Bodipy-positive cells,[1],28.2 ± 2.2%
CCCC[C@@H](C=O)NC(=O)[C@H](CC(C)C)NC(=O)[C@H](CC(C)C)NC(C)=O,percent Bodipy-positive cells,library stock concentration: 13 mM,95.1 ± 0.56%
CCN1CCc2nc(N)oc2CC1 [B-HT 933 dihydrochloride],percent Bodipy-positive cells,[1],29.7 ± 0.28%
COc1cc(C(C)=O)ccc1O [Apocynin],percent Bodipy-positive cells,[2],11.4 ± 0.83%
same,percent Bodipy-positive cells,[1],22.4 ± 3.3%
C[N+](C)(C)CCOC(=O)CCC(=O)OCC[N+](C)(C)C [Succinylcholine chloride],percent Bodipy-positive cells,[1],18.7 ± 5.8%
C[N+](C)(C)CCOC(=O)CCC(=O)OCC[N+](C)(C)C [Succinylcholine],percent Bodipy-positive cells,library stock concentration: 6.9 mM,7.1 ± 2.1%
O=C(CCCCCCC(=O)Nc1ccc([C@H]2O[C@@H](CSc3nc(-c4ccccc4)c(-c4ccccc4)o3)C[C@@H](c3ccc(CO)cc3)O2)cc1)NO [Tubacin],percent Bodipy-positive cells,[2],10.3 ± 2.5%
same,percent Bodipy-positive cells,[1],11.9 ± 3.7%
Cc1ccsc1/C=C/C1=NCCCN1C [Morantel tartrate],percent Bodipy-positive cells,,28.3 ± 2.5%
Cc1ccsc1/C=C/C1=NCCCN1C [Morantel citrate],percent Bodipy-positive cells,library stock concentration: 4.8 mM,9.61 ± 2%
same,percent Bodipy-positive cells,[1],43.6 ± 0.52%
CCCCCCCCCCCCCCCCOP(=O)([O-])OCC[N+](C)(C)C [Miltefosine],percent Bodipy-positive cells,[6],9.7 ± 5.6%
same,percent Bodipy-positive cells,library stock concentration: 4.9 mM,10.1 ± 0.23%
same,percent Bodipy-positive cells,[1],43.2 ± 6.9%
